Reference: PubChem BioAssay AID1259275 (Sanger Institute, 2017)
Screen: 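Knock-downs that cut viability on their own or combined with BYL719, cetuximab or trametinib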 (primary screen). Cells: COLO320HSR human colorectal cancer cells. Reagents: siRNA pool against human genes. Conditions: anchor drug added one day after transfection: BYL719 at 1 µM, cetuximab at 5 µg/ml or trametinib at 10 nM; DMSO as vehicle arm. Measurement: 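Viability averaged over replicates as a fraction of the non-targeting pool, a robust z-score for knock-down alone, and synergy scores with BYL719 (1 µM), cetuximab (5 µg/ml) or trametinib (10 nM)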. Reading the numbers: robust z-score, siRNA alone: higher = more viable cells; strongly negative means essential; viability, knock-down alone (DMSO): higher = more viable cells; synergy score with BYL719: higher = stronger combined killing with drug. Active means: 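Essential means the knock-down by itself gives a robust z-score lower than -3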. Meaning of the calls: active = essential (siRNA alone); inactive = no change (siRNA alone).
The whole screen tested 794 reagents; this is an unselected part. 13 of all reagents (1.6%) count as active. 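Calls mark knock-downs lethal by themselves, not drug synergy; drugs went in a day after transfection, with DMSO as vehicle.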 Unmarked entries are inactive. No viability above 1 is reported: the scale is capped. Not all columns of the deposit are shown. Not stated in the record: the amount of reagent, the time to read-out.

no.	target gene	PubChem SID	robust z-score, siRNA alone	viability, knock-down alone (DMSO) (fraction of control)	synergy score with BYL719
1	BMPR1B (bone morphogenetic protein receptor type 1B)	SID56478926	0.726	1	-0.205
2	NEK11 (NIMA related kinase 11)	SID152147168	-0.4	0.898	-0.157
3	ADCK1 (aarF domain containing kinase 1)	SID135620966	0.13	0.946	-0.108
4	TSKS (testis specific serine kinase substrate)	SID56479267	0.726	1	-0.12
5	RYK (receptor like tyrosine kinase)	SID152147158	0.726	1	-0.242
6	MVK (mevalonate kinase)	SID56479115	-0.109	0.925	0.0179
7	TESK2 (testis associated actin remodelling kinase 2)	SID135620925	0.726	1	-0.0159
8	TSSK1B (testis specific serine kinase 1B)	SID56478967	-0.358	0.902	-0.16
9	GNE	SID56479101	0.726	1	-0.195
10	HK1 (hexokinase 1)	SID56479165	0.726	1	-0.116
11	MAP3K1 (mitogen-activated protein kinase kinase kinase 1)	SID152150888	0.45	0.975	-0.116
12	MELK (maternal embryonic leucine zipper kinase)	SID56478756	0.115	0.945	-0.208
13	CALM2 (calmodulin 2)	SID134320655	0.726	1	-0.104
14	STK33 (serine/threonine kinase 33)	SID56479053	-0.194	0.917	0.0269
15	PIK3R1 (phosphoinositide-3-kinase regulatory subunit 1)	SID135620606	0.544	0.984	-0.0931
16	MAP3K9 (mitogen-activated protein kinase kinase kinase 9)	SID152152652	0.726	1	-0.00547
17	RPS6KC1 (ribosomal protein S6 kinase C1)	SID135620976	0.726	1	-0.141
18	GUCY2F (guanylate cyclase 2F, retinal)	SID152150427	0.726	1	-0.115
19	PRKD1 (protein kinase D1)	SID152147507	0.675	0.995	-0.203
20	FRK (fyn related Src family tyrosine kinase)	SID56478519	-0.5	0.889	-0.212
21	BMX (BMX non-receptor tyrosine kinase)	SID152147462	-1.07	0.838	-0.315
22	PACSIN1 (protein kinase C and casein kinase substrate in neurons 1)	SID56479194	-0.25	0.912	-0.143
23	ULK1 (unc-51 like autophagy activating kinase 1)	SID56478976	0.726	1	-0.163
24	PSKH2 (protein serine kinase H2)	SID56479040	0.726	1	-0.0805
25	STK17B (serine/threonine kinase 17b)	SID56478762	0.726	1	-0.0446
26	CDK4 (cyclin dependent kinase 4)	SID56478598	0.726	1	0.0121
27	TRIO (trio Rho guanine nucleotide exchange factor)	SID56478974	-0.497	0.89	-0.161
28	PIK3C3 (phosphatidylinositol 3-kinase catalytic subunit type 3)	SID134310831	0.726	1	-0.0439
29	PHKA1 (phosphorylase kinase regulatory subunit alpha 1)	SID152155157	0.726	1	-0.13
30	NEK6 (NIMA related kinase 6)	SID56478779	0.726	1	-0.296
31	KSR2 (kinase suppressor of ras 2)	SID152149204	0.601	0.989	0.0151
32	CSNK1A1L (casein kinase 1 alpha 1 like)	SID135620867	0.619	0.99	-0.141
33	ITPKC (inositol-trisphosphate 3-kinase C)	SID56479112	0.287	0.96	0.0629
34	MAP3K14 (mitogen-activated protein kinase kinase kinase 14)	SID135620705	-1.66	0.785	-0.0337
